US7767626B2, “3-arylphenyl sulfide derivative and insecticide and miticide” (Kumiai Chemical Industry Co., Ltd., priority 1998, dated 2010)
Some entries share one result that the patent states for a list of compounds. At least one compound was matched to its structure with a doubt left.

Test system: two-spotted spider mites
Experiment: Insecticidal test on two-spotted spider mites (Test Example 1)
Type: in vivo, Tetranychus urticae
Conditions: wettable powder diluted to 500 ppm active ingredient; soybean seedlings inoculated with adult mites immersed; survivors counted after 13 days; Equation 1
Source text: Test Example 1 Insecticidal Test on Two-Spotted Spider Mites

SMILES: Cc1ccc(-n2cc(C(F)(F)F)cn2)cc1SCC(F)(F)F [Compound V-645]
- preventive value: ≥ 90

SMILES: CCC[S+]([O-])c1cc(-n2ccc(C(F)(F)F)n2)ccc1C(F)F (stereo not drawn) [Compound V-208]
- preventive value: ≥ 90

SMILES: Cc1ccc(-n2cc(Cl)c(C(F)(F)F)n2)cc1SCC(F)(F)F [Compound V-366]
- preventive value: ≥ 90

SMILES: N#Cc1ccc(-n2ccc(C(F)(F)F)n2)cc1[S+]([O-])CC1CCC1 (stereo not drawn) [Compound V-54]
- preventive value: ≥ 90

SMILES: FC(F)(F)CSc1cc(-n2cc(C(F)(F)F)cn2)ccc1Cl [Compound V-694]
- preventive value: ≥ 90

SMILES: FC(F)(F)CSc1cc(-n2ccc(C(F)(F)F)n2)ccc1Br [Compound V-302]
- preventive value: ≥ 90

SMILES: CC(=O)Nc1ccc(-n2ccc(C(F)(F)F)n2)cc1SCC(F)(F)F [Compound V-286]
- preventive value: ≥ 90

SMILES: Cc1cn(-c2ccc(C#N)c([S+]([O-])CC(F)(F)F)c2)nc1C(F)(F)F (stereo not drawn) [Compound V-92]
- preventive value: ≥ 90

SMILES: Cc1cc(F)c(-n2cc(C(F)(F)F)cn2)cc1SCC1CC1 [Compound V-657]
- preventive value: ≥ 90

SMILES: Cc1cn(-c2ccc(C=O)c(SCC(F)(F)F)c2)nc1C(F)(F)F [Compound V-493]
- preventive value: ≥ 90

SMILES: FC(F)c1ccc(-n2ccc(C(F)(F)F)n2)cc1SCC1CC1 [Compound V-237]
- preventive value: ≥ 90

SMILES: [O-][S+](CC(F)(F)F)c1cc(-n2cc(C(F)(F)F)cn2)c(Cl)cc1Cl (stereo not drawn) [Compound V-718]
- preventive value: ≥ 90

SMILES: N#Cc1ccc(-n2ccc(C(F)(F)F)n2)cc1SCC1CCC1 [Compound V-33, 2-cyclobutylmethylthio-4-(3-trifluoromethylpyrazolyl)benzonitrile]
- preventive value: ≥ 90

SMILES: CCC[S+]([O-])c1cc(-n2cc(C(F)(F)F)cn2)ccc1C#N (racemic) [Compound V-636]
- preventive value: ≥ 90

SMILES: Nc1ccc(-n2ccc(C(F)(F)F)n2)cc1SCC(F)(F)F [Compound V-283]
- preventive value: ≥ 90

SMILES: Cc1cc(F)c(-n2ccc(C(F)(F)F)n2)cc1SCC(F)(F)F [Compound V-613, [4-fluoro-2methyl-5-(3-trifluoromethylpyrazolyl)phenyl] 2,2,2trifluoroetyl sulfide]
- preventive value: ≥ 90

SMILES: O=Cc1ccc(-n2cc(C(F)(F)F)cn2)cc1SCC(F)(F)F [Compound V-687]
- preventive value: ≥ 90

SMILES: O=Cc1ccc(-n2cc(Cl)c(C(F)(F)F)n2)cc1SCC(F)(F)F [Compound V-685]
- preventive value: ≥ 90

SMILES: N#Cc1ccc(-n2nccc2C(F)(F)F)cc1SCC1CC1 [Compound V-155]
- preventive value: ≥ 90

SMILES: N#Cc1ccc(-n2cc(C(F)(F)F)cn2)cc1[S+]([O-])CC(F)(F)F (racemic) [Compound V-640]
- preventive value: ≥ 90

SMILES: N#Cc1ccc(-n2cnc(C(F)(F)F)cc2=O)cc1[S+]([O-])CC1CC1 (stereo not drawn) [I I I-15]
- preventive value: ≥ 90

SMILES: Cc1cc(F)c(-n2cc(C(F)(F)F)cn2)cc1[S+]([O-])CC1CC1 (racemic) [Compound V-658]
- preventive value: ≥ 90

SMILES: Cc1cn(-c2ccc(C#N)c(SCC3CC3)c2)nc1C(F)(F)F [Compound V-83]
- preventive value: ≥ 90

SMILES: Cc1cn(-c2ccc(C#N)c(SCC(F)(F)F)c2)nc1C(F)(F)F [Compound V-82]
- preventive value: ≥ 90

SMILES: CCC[S+]([O-])c1cc(-n2ccc(C(F)(F)F)n2)ccc1C=O (stereo not drawn) [Compound V-188]
- preventive value: ≥ 90

SMILES: [O-][S+](CC(F)(F)F)c1cc(-n2ccc(C(F)(F)F)n2)ccc1CO (stereo not drawn) [Compound V-305]
- preventive value: ≥ 90

SMILES: CCCSc1cc(-n2cc(C)c(C(F)(F)F)n2)ccc1C [Compound V-333]
- preventive value: ≥ 90

SMILES: Cc1cn(-c2ccc(C#N)c([S+]([O-])CC3CC3)c2)nc1C(F)(F)F (stereo not drawn) [Compound V-93]
- preventive value: ≥ 90

SMILES: C=Cc1ccc(-n2ccc(C(F)(F)F)n2)cc1SCC(F)(F)F [Compound V-278, [2-ethenyl-5-(3-trifluoromethylpyrazolyl)phenyl] 2,2,2-trifluoroethyl sulfide]
- preventive value: ≥ 90

SMILES: ON=Cc1ccc(-n2ccc(C(F)(F)F)n2)cc1SCC(F)(F)F [Compound V-297]
- preventive value: ≥ 90

SMILES: [O-][S+](CC(F)(F)F)c1cc(-n2ccc(C(F)(F)F)n2)c(F)cc1Cl (stereo not drawn) [Compound V-701]
- preventive value: ≥ 90

SMILES: N#Cc1ccc(-n2nccc2C(F)(F)F)cc1[S+]([O-])CC1CC1 (stereo not drawn) [Compound V-156]
- preventive value: ≥ 90

SMILES: CCCSc1cc(-n2ccc(C(F)(F)F)n2)ccc1C#N [Compound V-20]
- preventive value: ≥ 90

SMILES: CCC[S+]([O-])c1cc(-n2ccc(C(F)(F)F)n2)ccc1C#N (stereo not drawn) [Compound V-37]
- preventive value: ≥ 90

SMILES: OCc1ccc(-n2ccc(C(F)(F)F)n2)cc1SCC(F)(F)F [Compound V-276]
- preventive value: ≥ 90

SMILES: FC(F)(F)CSc1cccc(-n2ccc(C(F)(F)F)n2)c1 [Compound V-710]
- preventive value: ≥ 90

SMILES: [O-][S+](CC1CC1)c1cc(-n2ccc(C(F)(F)F)n2)c(F)cc1Cl (stereo not drawn) [Compound V-699]
- preventive value: ≥ 90

SMILES: FC(F)(F)CSc1cc(-n2cc(C(F)(F)F)cn2)c(Cl)cc1Cl [Compound V-717]
- preventive value: ≥ 90

SMILES: FC(F)c1ccc(-n2ccc(C(F)(F)F)n2)cc1SCC(F)(F)F [Compound V-295, [2-difluoromethyl-5-(3-trifluoromethylpyrazolyl)phenyl] 2,2,2-trifluoroethyl sulfide]
- preventive value: ≥ 90

SMILES: FC(F)(F)c1cnn(-c2ccc(Cl)c(SCC3CC3)c2)c1 [Compound V-692]
- preventive value: ≥ 90

SMILES: [O-][S+](CC(F)(F)F)c1cc(-n2cc(C(F)(F)F)cn2)ccc1Cl (stereo not drawn) [Compound V-695]
- preventive value: ≥ 90

SMILES: N#Cc1ccc(-n2ccc(C(F)(F)F)n2)cc1SCC1CC1 [Compound V-32]
- preventive value: ≥ 90

SMILES: FC(F)c1ccc(-n2cc(C(F)(F)F)cn2)cc1SCC(F)(F)F [Compound V-651]
- preventive value: ≥ 90

SMILES: C=Cc1ccc(-n2ccc(C(F)(F)F)n2)cc1[S+]([O-])CC(F)(F)F (stereo not drawn) [Compound V-307]
- preventive value: ≥ 90

SMILES: N#Cc1ccc(-n2cnc(C(F)(F)F)cc2=O)cc1SCC1CC1 [I I I-14]
- preventive value: ≥ 90

SMILES: Cc1cc(F)c(-n2cc(C(F)(F)F)cn2)cc1[S+]([O-])CC(F)(F)F (racemic) [Compound V-660]
- preventive value: ≥ 90

SMILES: Nc1ccc(-n2ccc(C(F)(F)F)n2)cc1[S+]([O-])CC(F)(F)F (stereo not drawn) [Compound V-312]
- preventive value: ≥ 90

SMILES: FCc1ccc(-n2ccc(C(F)(F)F)n2)cc1SCC(F)(F)F [Compound V-294]
- preventive value: ≥ 90

SMILES: Cc1ccc(-n2cc(C)c(C(F)(F)F)n2)cc1[S+]([O-])CC(F)(F)F (racemic) [Compound V-373]
- preventive value: ≥ 90

SMILES: Cc1ccc(-n2ccc(C(F)(F)F)n2)cc1[S+]([O-])CC(F)(F)F (stereo not drawn) [Compound V-321, [2-methyl-5-(3-trifluoromethylpyrazolyl)phenyl] 2,2,2-trifluoroethyl sulfoxide]
- preventive value: ≥ 90

SMILES: CC(C)Sc1cc(-n2ccc(C(F)(F)F)n2)ccc1C#N [Compound V-21]
- preventive value: ≥ 90

SMILES: N#Cc1ccc(-n2cc(I)cn2)cc1SCC(F)(F)F [Compound V-653]
- preventive value: ≥ 90

SMILES: [O-][S+](CC(F)(F)F)c1cc(-n2ccc(C(F)(F)F)n2)ccc1C(F)F (racemic) [Compound V-324, [2-difluoromethyl-5-(3-trifluoromethylpyrazolyl)phenyl] 2,2,2-trifluoroethyl sulfoxide]
- preventive value: ≥ 90

SMILES: N#Cc1ccc(-n2cc(Br)c(C(F)(F)F)n2)cc1SCC1CC1 [Compound V-121]
- preventive value: ≥ 90

SMILES: [O-][S+](CC(F)(F)F)c1cc(-n2ccc(C(F)(F)F)n2)ccc1Br (racemic) [Compound V-331]
- preventive value: ≥ 90

SMILES: OCc1ccc(-n2cc(Cl)c(C(F)(F)F)n2)cc1SCC(F)(F)F [Compound V-686]
- preventive value: ≥ 90

SMILES: CCC[S+]([O-])c1cc(-n2nccc2C(F)(F)F)ccc1C#N (stereo not drawn) [Compound V-154]
- preventive value: ≥ 90

SMILES: CCCSc1cc(-n2cc(Br)c(C(F)(F)F)n2)ccc1C#N [Compound V-114]
- preventive value: ≥ 90

SMILES: N#Cc1ccc(-n2cccn2)cc1[S+]([O-])CC(F)(F)F (stereo not drawn) [Compound V-14]
- preventive value: ≥ 90

SMILES: OCc1ccc(-n2cc(C(F)(F)F)cn2)cc1SCC(F)(F)F [Compound V-708]
- preventive value: ≥ 90

SMILES: FC(F)(F)CSc1cc(-n2ccc(C(F)(F)F)n2)ccc1Cl [Compound V-301]
- preventive value: ≥ 90

SMILES: CCC[S+]([O-])c1cc(-n2cnc(C(F)(F)F)cc2=O)ccc1C#N (stereo not drawn) [I I I-10]
- preventive value: ≥ 90

SMILES: N#Cc1ccc(-n2cc(Cl)c(C(F)(F)F)n2)cc1SCC(F)(F)F [Compound V-102]
- preventive value: ≥ 90

SMILES: [O-][S+](CC1CC1)c1cc(-n2ccc(C(F)(F)F)n2)ccc1C(F)F (stereo not drawn) [Compound V-266]
- preventive value: ≥ 90

SMILES: [O-][S+](CC1CC1)c1cc(-n2cc(C(F)(F)F)cn2)ccc1Cl (racemic) [Compound V-693]
- preventive value: ≥ 90

SMILES: [O-][S+](CC(F)(F)F)c1cc(-n2ccc(C(F)(F)F)n2)ccc1Cl (racemic) [Compound V-330]
- preventive value: ≥ 90

SMILES: CCSc1cc(-n2ccc(C(F)(F)F)n2)ccc1C#N [Compound V-19]
- preventive value: ≥ 90

SMILES: CCCSc1cc(-n2ccc(C(F)(F)F)n2)ccc1C(F)F [Compound V-179]
- preventive value: ≥ 90

SMILES: N#Cc1ccc(-n2ccc(C(F)(F)F)n2)cc1[S+]([O-])CC(F)(F)F (stereo not drawn) [Compound V-44]
- preventive value: ≥ 90

SMILES: [O-][S+](CC(F)(F)F)c1cc(-n2ccc(C(F)(F)F)n2)ccc1C=NO (racemic) [Compound V-326]
- preventive value: ≥ 90

SMILES: N#Cc1ccc(-n2cc(Br)c(C(F)(F)F)n2)cc1[S+]([O-])CC1CC1 (stereo not drawn) [Compound V-124]
- preventive value: ≥ 90

SMILES: CCCSc1cc(-n2cc(C)c(C(F)(F)F)n2)ccc1C#N [Compound V-116]
- preventive value: ≥ 90

SMILES: N#Cc1ccc(-n2ccc(C(F)(F)F)n2)cc1[S+]([O-])CC1CC1 (stereo not drawn) [Compound V-53]
- preventive value: ≥ 90

SMILES: CC[S+]([O-])c1cc(-n2ccc(C(F)(F)F)n2)ccc1C#N (stereo not drawn) [Compound V-36]
- preventive value: ≥ 90

SMILES: [O-][S+](CC(F)(F)F)c1cc(-n2ccc(C(F)(F)F)n2)ccc1CF (racemic) [Compound V-323]
- preventive value: ≥ 90
